These results are taken from the supplement of paper PMC7877785.

± gives the uncertainty stated by the source. Many of these values have a large error.

The data set can be described thus: self-splicing fitness, log relative to wild type (ln ratio); higher = more splicing; Tetrahymena group I intron in knt gene, E. coli kanamycin selection, DiMSum; sequences stand for … in CUCUCU…GGAGGGAAAAGUUAUCAGGCAUGCACCUGGUAGCUAGUCUUUAAACCAAUAGAUUGCAUCGGUUUAAAAGGCAAGACCGUCAAAUUGCGGGAAAGGGGUCAACAGCCGUUCAGUACCAAGUCUCAGGGGAAACUUUGAGAUGGCCUUGCAAAGGGUAUGGUAAUAAGCUGACGGACAUGGUCCUAACCACGCAGCCAAGUCCUAAGUCAACAGAUCUUCUGUUGAUAUGGAUGCAGUUCACAGACUAAAUGUCGGUCGGGGAAGAUGUAUUCUUCUCAUAAGAUAUAGUCGGACCUCUCCUUAAUGGGAGCUAGCGGAUGAAGUGAUGCAACACUGGAGCCGCUGGGAACUAAUUUGUAUGCGAAAGUAUAUUGAUUAGUUUUGGAGUACUCGUGGUCG
In a few lines:
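Pooled colonies went to amplicon sequencing on an Illumina HiSeq 2500 after six replicate transformations. The plates were LB agar with 100 μg/mL carbenicillin, 50 μM IPTG and 0.2% rhamnose, with or without 25 μg/mL kanamycin, incubated overnight at 37°C or 30°C. The E. coli BL21(DE3) library had all eight P1ex-region intron nucleotides randomised, the intron placed in the knt kanamycin-resistance gene on pET-22b(+). DiMSum fitness is the error-weighted combination of replicate fold changes, kanamycin against none, normalised to wild type.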

Regarding GUGUAGCAAUAUUACGCAAA, the “self-splicing fitness (ln)” value reads like this: (30 °C) -1.52 ± 1.2; (37 °C) -1.95 ± 0.57.
Turning to GGUUAGCAAUAUUACGAAGG, the “self-splicing fitness (ln)” value is, setting by setting: (30 °C) -2.66 ± 0.78; (37 °C) -1.94 ± 0.55.
The corresponding values for AAGUAGCAAUAUUACGACGG are -1.74 ± 0.29 and -1.66 ± 0.34.
The corresponding values for AGAUAGCAAUAUUACGGGAC are -5.08 ± 0.71 and -3.18 ± 1.
Turning to UGAUAGCAAUAUUACGCUAC, where the note is “30 °C”, the “self-splicing fitness (ln)” value was -2.94 ± 1.1.
Take GGGAAGCAAUAUUACGCCUC: the “self-splicing fitness (ln)” value (37 °C) is 0.321 ± 1.2.
In the case of AUAUAGCAAUAUUACGGAGA, where the note is “30 °C”, the “self-splicing fitness (ln)” value is -3.84 ± 0.75.
On the same count and under the same terms, as for AGCAAGCAAUAUUACGCGCU, the figure is -4.19 ± 0.52.
Turning to UAUUAGCAAUAUUACGCGCC, the “self-splicing fitness (ln)” value (37 °C) was -0.483 ± 0.61.
CGAUAGCAAUAUUACGUAAG: the “self-splicing fitness (ln)” value is, setting by setting: (30 °C) -0.163 ± 0.066; (37 °C) 0.259 ± 0.082.
The like results for UUUGAGCAAUAUUACGCCGU were, in that order, -1.32 ± 0.82 and -1.88 ± 1.2.
In the case of UACGAGCAAUAUUACGAAGA, the “self-splicing fitness (ln)” value (37 °C) was -2.93 ± 0.53.
With CAUGAGCAAUAUUACGCUAU, the “self-splicing fitness (ln)” value runs as follows: (30 °C) -3.46 ± 0.3; (37 °C) -1.99 ± 0.21.
Take UGCCAGCAAUAUUACGCAGC: the “self-splicing fitness (ln)” value (30 °C) is -3.82 ± 1.
Take CUAAAGCAAUAUUACGGCCA: the “self-splicing fitness (ln)” value reads like this: (30 °C) -3.21 ± 0.31; (37 °C) -2.08 ± 0.4.
As for GGUGAGCAAUAUUACGACAG, where the note is “37 °C”, the “self-splicing fitness (ln)” value was -3.11 ± 0.6.
Consider GCGAAGCAAUAUUACGCCGA, for which the “self-splicing fitness (ln)” value (30 °C) is -3.21 ± 1.1.
For AGCGAGCAAUAUUACGGUAC, the “self-splicing fitness (ln)” value (30 °C) was -3.58 ± 0.36.
Turning to AAAAAGCAAUAUUACGCUGC, the “self-splicing fitness (ln)” value (37 °C) is -3.15 ± 0.74.
For ACAGAGCAAUAUUACGAACC, the “self-splicing fitness (ln)” value (30 °C) is -2.66 ± 1.1.
The same measure, in the same setting: as for UCCUAGCAAUAUUACGCAGC, the figure is -3.74 ± 0.62.
As to UGUGAGCAAUAUUACGCGAC, the “self-splicing fitness (ln)” value (37 °C) was -3.48 ± 0.76.
With GAGGAGCAAUAUUACGCUCU, the “self-splicing fitness (ln)” value (30 °C) is -2.18 ± 0.42 and the “self-splicing fitness (ln)” value (37 °C) is -1.73 ± 0.47.
For GGGGAGCAAUAUUACGGAUC, the “self-splicing fitness (ln)” value (30 °C) is -1.4 ± 1.2 and the “self-splicing fitness (ln)” value (37 °C) was 0.321 ± 1.2.
As for AAAGAGCAAUAUUACGACCA, the “self-splicing fitness (ln)” value (37 °C) is -2.77 ± 0.61.
With GGUCAGCAAUAUUACGGAGA, the “self-splicing fitness (ln)” value (30 °C) is -4.32 ± 0.6.
For GGAAAGCAAUAUUACGCUCU, for the setting “37 °C”, the “self-splicing fitness (ln)” value was -2.15 ± 0.64.
As for CAGAAGCAAUAUUACGUCAU, the “self-splicing fitness (ln)” value is, setting by setting: (30 °C) -5.39 ± 0.5; (37 °C) -2.9 ± 0.25.
On to GCAGAGCAAUAUUACGCCGC, for which the “self-splicing fitness (ln)” value (37 °C) is -1.71 ± 0.62.
ACUGAGCAAUAUUACGCAGC: the “self-splicing fitness (ln)” value (30 °C) is -3.43 ± 0.73.
On the same count and under the same terms, as for GCUGAGCAAUAUUACGAUCG, the figure is -2.65 ± 0.51.
On to CAAGAGCAAUAUUACGUACC, for which the “self-splicing fitness (ln)” value (37 °C) is -1.69 ± 1.2.
On the same count and under the same terms, the result for UCAGAGCAAUAUUACGCGUC reads -2.08 ± 0.58; that for ACUGAGCAAUAUUACGUCCC, -1.92 ± 0.52.
For GUCAAGCAAUAUUACGUUAC, the “self-splicing fitness (ln)” value is, setting by setting: (30 °C) -3.02 ± 0.17; (37 °C) -2.96 ± 0.17.
The corresponding values for GAAGAGCAAUAUUACGCGCA are -1.11 ± 0.2 and -1.35 ± 0.14.
The like results for GAAAAGCAAUAUUACGGAGG were, in that order, -2.71 ± 0.14 and -1.73 ± 0.18.
With GAUGAGCAAUAUUACGUCGG, the “self-splicing fitness (ln)” value (30 °C) was -4.54 ± 0.51.
Consider AGGGAGCAAUAUUACGCCAU, for which the “self-splicing fitness (ln)” value (37 °C) is -2.49 ± 0.62.
In the case of GGCGAGCAAUAUUACGGGGG, the “self-splicing fitness (ln)” value by setting is: (30 °C) -3.33 ± 0.2; (37 °C) -2.64 ± 0.28.
In the case of UGGGAGCAAUAUUACGAGGG, under “30 °C”, the “self-splicing fitness (ln)” value is -4.89 ± 1.
For the sequence GUGUAGCAAUAUUACGAGAA, the “self-splicing fitness (ln)” value reads like this: (30 °C) -1.35 ± 0.69; (37 °C) -1.14 ± 0.63.
CAUGAGCAAUAUUACGGUCU: the “self-splicing fitness (ln)” value was -3.11 ± 0.28 (30 °C) and -1.2 ± 0.18 (37 °C).
CAGAAGCAAUAUUACGCCCU: where the note is “30 °C”, the “self-splicing fitness (ln)” value is -2.25 ± 0.74.
Consider AUGGAGCAAUAUUACGAGUG, for which the “self-splicing fitness (ln)” value is, setting by setting: (30 °C) -3.88 ± 1.1; (37 °C) -2.86 ± 0.53.
In the case of CGCGAGCAAUAUUACGCGCA, the “self-splicing fitness (ln)” value (30 °C) was -3.97 ± 0.55.
AUUUAGCAAUAUUACGAGGC: under “37 °C”, the “self-splicing fitness (ln)” value is -1.24 ± 0.68.
Consider CUAGAGCAAUAUUACGCUGG, for which the “self-splicing fitness (ln)” value (30 °C) was -2.77 ± 0.76.
Still for that read-out and setting: as for UGCGAGCAAUAUUACGGAGU, the figure is -5.1 ± 0.51.
